# Measurements reported in the supplement of paper PMC5407854, “Inhibitor of ppGalNAc-T3-mediated O-glycosylation blocks cancer cell invasiveness and lowers FGF23 levels” (eLife, 2017).
# Some of the results follow. Small differences around the control level are noise.
# How the values were obtained:
# ppGalNAc-T3 sensor = assay: T3 sensor activation Q score (MG/GFP ratio z-score vs DMSO controls) (SD units); higher = more sensor activation (inhibition of ppGalNAc-T3 glycosylation); conditions: HEK293 sensor cells; 10 µM; 6 h
# Procedure: (§1)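 Cells were treated with compound at 10 uM for 6 h, then MG/GFP ratio was read by flow cytometry (10,000 cells per well, duplicate wells). Q = (R - R_neg)/SD_neg relative to DMSO vehicle controls; the signal rises when the glycosyltransferase is inhibited.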
# ppGalNAc-T2 sensor = assay: T2 sensor activation Q score (MG/GFP ratio z-score vs DMSO controls) (SD units); higher = more sensor activation (inhibition of ppGalNAc-T2 glycosylation); conditions: HEK293 sensor cells; 10 µM; 6 h
# Procedure: as §1
SMILES,T3 sensor activation Q score (ppGalNAc-T3 sensor),T2 sensor activation Q score (ppGalNAc-T2 sensor)
CC(=O)c1cccc(NC(=O)C(Cc2ccccc2)N2C(=O)c3ccccc3C2=O)c1 (stereo unspecified),-0.025,-0.485
CCN(CC)/C(=C/C(=O)c1cccc([N+](=O)[O-])c1)c1ccccc1,-0.42,1.1
On1c(-c2cccc(Cl)c2)nc2c1CCc1nonc1-2,0.015,-0.51
CCN(CC)C(=O)C1CCCN(Cc2ccccc2C)C1 (stereo unspecified),-0.19,0.05
Cc1ccc(O)c(CCc2ccc(O)cc2)n1,0.11,1.11
Cc1cccc(N2CCN(Cc3ccoc3)CC2)c1C,0.265,0.105
CN1CCN(C(=O)CN(c2ccccc2F)S(C)(=O)=O)CC1,-0.585,-0.585
O=C(NCCc1ccccc1)c1cccc(F)c1,-0.135,-1.67
COc1ccc(OC)c(NC2=NS(=O)(=O)c3ccccc32)c1,0.39,0.565
C=CCc1ccccc1OCC(N)=O,0.175,-0.18
O=C1CC(N2CCCc3ccccc32)C(=O)N1c1ccccc1 (stereo unspecified),-0.825,-0.785
Fc1cccc(CN2CCOCC2)c1,0.91,0.055
CC(C)(C)NC(=O)c1ccc(Cl)c(Cl)c1,-0.29,-1.07
CCN(CC)CCN1C(=O)C(O)=C(C(C)=O)C1c1ccc(Cl)cc1 (stereo unspecified),0.255,-0.055
Cc1ccc(S(=O)(=O)N2CCN(C)CC2)cc1,-0.02,-0.245
COc1cc(OC)cc(C(=O)NCCC2=CCCCC2)c1,-0.285,0.84
O=C(O)CC1(c2ccccc2)C(=O)c2ccccc2C1=O,-0.765,-1.76
Cc1c(NC(=O)c2ccc(Cl)cc2)c(=O)n(-c2ccccc2)n1C,-0.385,-0.46

# Single records, from the list above. Order of values: T3 sensor activation Q score (ppGalNAc-T3 sensor)	T2 sensor activation Q score (ppGalNAc-T2 sensor)
# C=CCc1ccccc1OCC(N)=O as listed: 0.175	-0.18
# Cc1c(NC(=O)c2ccc(Cl)cc2)c(=O)n(-c2ccccc2)n1C as listed: -0.385	-0.46
